# Experimental data taken from the supplement of paper PMC8728848.
# This is one part of the list.
# B1: CRT-1 (Homo sapiens), P27797 (protein)
# chain: MLLSVPLLLGLLGLAVAEPAVYFKEQFLDGDGWTSRWIESKHKSDFGKFVLSSGKFYGDEEKDKGLQTSQDARFYALSASFEPFSNKGQTLVVQFTVKHEQNIDCGGGYVKLFPNSLDQTDMHGDSEYNIMFGPDICGPGTKKVHVIFNYKGKNVLINKDIRCKDDEFTHLYTLIVRPDNTYEVKIDNSQVESGSLEDDWDFLPPKKIKDPDASKPEDWDERAKIDDPTDSKPEDWDKPEHIPDPDAKKPEDWDEEMDGEWEPPVIQNPEYKGEWKPRQIDNPDYKGTWIHPEIDNPEYSPDPSIYAYDNFGVLGLDLWQVKSGTIFDNFLITNDEAYAEEFGNETWGVTKAAEKQMKDKQDEEQRLKEEEEDKKRKEEEEAEDKEDDEDKDEDEEDEEDKEEDEEEDVPGQAKDEL
# Legend:
# Assay in all cases: glycan array binding signal (z-score within array); higher = stronger binding
# Settings in all cases: glycan notation: IUPAC condensed, linker removed
# Gal3S(b1-4)Glc = molecular target: Gal3S(b1-4)Glc
# How it was run: (§1)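 Glycan array binding is given as a within-array Z-score, which can be read as non-binding when negative. The arrays, 3228 of them, came from the Consortium for Functional Glycomics database and were retained only where the protein sequence was available. Z-scores were averaged across arrays of the same protein sequence at different concentrations or buffers and across linkers.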
# Gal3S(b1-4)Glc6S = molecular target: Gal3S(b1-4)Glc6S
# How it was run: as §1
# Gal3S(b1-4)GlcNAc = molecular target: Gal3S(b1-4)GlcNAc
# How it was run: as §1
# Gal3S(b1-4)GlcNAc6S = molecular target: Gal3S(b1-4)GlcNAc6S
# How it was run: as §1
# [1] = molecular target: Gal3S(b1-4)[Fuc(a1-3)]Glc
# How it was run: as §1
# [2] = molecular target: Gal3S(b1-4)[Fuc(a1-3)]Glc6S
# How it was run: as §1
# [3] = molecular target: Gal3S(b1-4)[Fuc(a1-3)]GlcNAc
# How it was run: as §1
# [4] = molecular target: Gal3S(b1-4)[Fuc(a1-3)]GlcNAc6S
# How it was run: as §1
# Gal3S4S(b1-4)GlcNAc = molecular target: Gal3S4S(b1-4)GlcNAc
# How it was run: as §1
# Gal3S6S(b1-4)GlcNAc = molecular target: Gal3S6S(b1-4)GlcNAc
# How it was run: as §1
# Gal3S6S(b1-4)GlcNAc6S = molecular target: Gal3S6S(b1-4)GlcNAc6S
# How it was run: as §1
# Gal4S(b1-4)GlcNAc = molecular target: Gal4S(b1-4)GlcNAc
# How it was run: as §1
# Gal4S6S(b1-4)GlcNAc = molecular target: Gal4S6S(b1-4)GlcNAc
# How it was run: as §1
# Gal6P(b1-4)GlcNAc = molecular target: Gal6P(b1-4)GlcNAc
# How it was run: as §1
# Gal6S(b1-3)GlcNAc = molecular target: Gal6S(b1-3)GlcNAc
# How it was run: as §1
# Gal6S(b1-3)GlcNAc6S = molecular target: Gal6S(b1-3)GlcNAc6S
# How it was run: as §1
# Gal6S(b1-4)Glc = molecular target: Gal6S(b1-4)Glc
# How it was run: as §1
# Gal6S(b1-4)Glc6S = molecular target: Gal6S(b1-4)Glc6S
# How it was run: as §1
# Gal6S(b1-4)GlcNAc = molecular target: Gal6S(b1-4)GlcNAc
# How it was run: as §1
# Gal6S(b1-4)GlcNAc6S = molecular target: Gal6S(b1-4)GlcNAc6S
# How it was run: as §1
# GalNAc(a1-3)Gal = molecular target: GalNAc(a1-3)Gal
# How it was run: as §1
# GalNAc(a1-3)GalNAc = molecular target: GalNAc(a1-3)GalNAc
# How it was run: as §1
# [5] = molecular target: GalNAc(a1-3)GalNAc(a1-3)Gal(a1-4)Gal(b1-4)GlcNAc
# How it was run: as §1
# [6] = molecular target: GalNAc(a1-3)GalNAc(b1-3)Gal(a1-4)Gal(b1-4)Glc
# How it was run: as §1
# [7] = molecular target: GalNAc(a1-3)GalNAc(b1-3)Gal(a1-4)Gal(b1-4)GlcNAc
# How it was run: as §1
# GalNAc(b1-3)Gal = molecular target: GalNAc(b1-3)Gal
# How it was run: as §1
# [8] = molecular target: GalNAc(b1-3)Gal(a1-4)Gal(b1-4)GlcNAc
# How it was run: as §1
# [9] = molecular target: GalNAc(b1-3)Gal(a1-4)Gal(b1-4)GlcNAc(b1-3)Gal(b1-4)Glc
# How it was run: as §1
# [10] = molecular target: GalNAc(b1-3)Gal(a1-6)Gal(b1-4)Glc
# How it was run: as §1
# GalNAc(b1-3)GalNAc = molecular target: GalNAc(b1-3)GalNAc
# How it was run: as §1
# GalNAc(b1-3)GlcNAc = molecular target: GalNAc(b1-3)GlcNAc
# How it was run: as §1
# GalNAc(b1-4)Gal(b1-4)Glc = molecular target: GalNAc(b1-4)Gal(b1-4)Glc
# How it was run: as §1
# GalNAc(b1-4)GlcNAc = molecular target: GalNAc(b1-4)GlcNAc
# How it was run: as §1
# [11] = molecular target: GalNAc(b1-4)GlcNAc(b1-2)Man
# How it was run: as §1
# [12] = molecular target: GalNAc(b1-4)GlcNAc(b1-2)Man(a1-3)[GalNAc(b1-4)GlcNAc(b1-2)Man(a1-6)]Man(b1-4)GlcNAc(b1-4)GlcNAc
# How it was run: as §1
# [13] = molecular target: GalNAc(b1-4)GlcNAc(b1-3)GalNAc(b1-4)GlcNAc
# How it was run: as §1
# GalNAc(b1-4)GlcNAc6S = molecular target: GalNAc(b1-4)GlcNAc6S
# How it was run: as §1
binder,measurement,setting,value
B1,glycan array binding signal (z-score),Gal3S(b1-4)Glc,-0.53
same,glycan array binding signal (z-score),Gal3S(b1-4)Glc6S,-0.054
same,glycan array binding signal (z-score),Gal3S(b1-4)GlcNAc,0.11
same,glycan array binding signal (z-score),Gal3S(b1-4)GlcNAc6S,-0.498
same,glycan array binding signal (z-score),[1],-0.4
same,glycan array binding signal (z-score),[2],0.706
same,glycan array binding signal (z-score),[3],0.503
same,glycan array binding signal (z-score),[4],0.148
same,glycan array binding signal (z-score),Gal3S4S(b1-4)GlcNAc,-0.367
same,glycan array binding signal (z-score),Gal3S6S(b1-4)GlcNAc,0.514
same,glycan array binding signal (z-score),Gal3S6S(b1-4)GlcNAc6S,-0.048
same,glycan array binding signal (z-score),Gal4S(b1-4)GlcNAc,-0.404
same,glycan array binding signal (z-score),Gal4S6S(b1-4)GlcNAc,-0.98
same,glycan array binding signal (z-score),Gal6P(b1-4)GlcNAc,-0.578
same,glycan array binding signal (z-score),Gal6S(b1-3)GlcNAc,-0.236
same,glycan array binding signal (z-score),Gal6S(b1-3)GlcNAc6S,0.965
same,glycan array binding signal (z-score),Gal6S(b1-4)Glc,-0.297
same,glycan array binding signal (z-score),Gal6S(b1-4)Glc6S,-0.096
same,glycan array binding signal (z-score),Gal6S(b1-4)GlcNAc,-0.673
same,glycan array binding signal (z-score),Gal6S(b1-4)GlcNAc6S,1.47
same,glycan array binding signal (z-score),GalNAc(a1-3)Gal,0.04
same,glycan array binding signal (z-score),GalNAc(a1-3)GalNAc,0.075
same,glycan array binding signal (z-score),[5],-0.139
same,glycan array binding signal (z-score),[6],-0.706
same,glycan array binding signal (z-score),[7],0.706
same,glycan array binding signal (z-score),GalNAc(b1-3)Gal,-0.401
same,glycan array binding signal (z-score),[8],0.487
same,glycan array binding signal (z-score),[9],0.488
same,glycan array binding signal (z-score),[10],-0.568
same,glycan array binding signal (z-score),GalNAc(b1-3)GalNAc,0.025
same,glycan array binding signal (z-score),GalNAc(b1-3)GlcNAc,0.853
same,glycan array binding signal (z-score),GalNAc(b1-4)Gal(b1-4)Glc,0.378
same,glycan array binding signal (z-score),GalNAc(b1-4)GlcNAc,0.222
same,glycan array binding signal (z-score),[11],-0.75
same,glycan array binding signal (z-score),[12],0.7
same,glycan array binding signal (z-score),[13],0.133
same,glycan array binding signal (z-score),GalNAc(b1-4)GlcNAc6S,-0.519

# Some of the entries so far, as tab-separated lines:
binder	measurement	setting	value
B1	glycan array binding signal (z-score)	Gal3S6S(b1-4)GlcNAc6S	-0.048
same	glycan array binding signal (z-score)	Gal6S(b1-3)GlcNAc	-0.236
